According to publication PMC8022279:
These are yes or no findings as the source states them, for the method shown. Some results given as binding are weak or reduced against the parent protein; the word gives no strength.

By UniProt entry, the sequences of proteins in these tests, tags left out.
UniProt Q02775: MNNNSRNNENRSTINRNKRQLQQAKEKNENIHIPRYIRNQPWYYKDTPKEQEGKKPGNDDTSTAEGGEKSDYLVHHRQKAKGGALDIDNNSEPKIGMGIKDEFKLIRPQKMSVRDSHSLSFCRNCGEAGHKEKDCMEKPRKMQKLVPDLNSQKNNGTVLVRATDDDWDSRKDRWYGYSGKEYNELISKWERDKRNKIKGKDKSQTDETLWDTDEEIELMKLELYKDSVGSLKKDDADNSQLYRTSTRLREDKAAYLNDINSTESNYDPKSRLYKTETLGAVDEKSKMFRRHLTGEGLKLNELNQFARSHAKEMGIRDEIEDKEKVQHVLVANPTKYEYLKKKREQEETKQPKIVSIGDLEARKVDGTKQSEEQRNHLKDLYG

How the values were obtained:
[1] = biological target: T1, recombinant Prp18 (of the Slu7/Prp18 heterodimer) (S. cerevisiae) (UniProt P33411); assay: co-purification (Ni-NTA, then gel filtration); Prp18 and Slu7 co-expressed in E. coli; Ni-NTA in buffer A250 (50mM Tris-HCl pH 7.5, 250mM NaCl), heterodimer eluting at 100 mM imidazole, then gel filtration in buffer A250
T1 sequence: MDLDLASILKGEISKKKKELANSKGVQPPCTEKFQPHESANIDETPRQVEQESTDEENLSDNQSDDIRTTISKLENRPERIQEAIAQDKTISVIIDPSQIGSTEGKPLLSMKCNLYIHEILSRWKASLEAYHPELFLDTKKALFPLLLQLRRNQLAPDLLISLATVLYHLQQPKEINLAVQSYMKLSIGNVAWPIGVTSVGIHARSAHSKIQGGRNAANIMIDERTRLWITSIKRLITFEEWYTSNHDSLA

[2] = biological target: T2, Prp18 (S. cerevisiae (endogenous in splicing extract)) (UniProt P33411); assay: cryo-EM structure; endogenous S. cerevisiae C/Ci-complex spliceosomes assembled in splicing extract on UBC4 pre-mRNA and affinity purified (buffer K-75, 75 mM KCl); C-complex particles of 6 datasets merged (C and P particles merged for the Prp19 module); focused classification and focused …
T2 sequence: T1 sequence

| Substance | binding [1] | binding [2] |
| --- | --- | --- |
| recombinant Slu7 (of the Slu7/Prp18 heterodimer) (from UniProt Q02775 1-382) | binds |  |
| Slu7 (from UniProt Q02775 1-382) |  | binds |
